Results as given in PMC5435804.

Tested on: T1, rCosR (CosR-His6)
T1 sequence (looked up): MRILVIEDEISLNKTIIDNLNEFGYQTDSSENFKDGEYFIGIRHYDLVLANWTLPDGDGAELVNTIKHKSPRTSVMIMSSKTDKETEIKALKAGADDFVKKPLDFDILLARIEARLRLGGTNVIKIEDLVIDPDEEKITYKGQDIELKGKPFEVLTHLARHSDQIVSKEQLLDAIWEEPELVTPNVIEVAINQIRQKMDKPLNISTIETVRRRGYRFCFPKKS
Assay: EMSA
Settings: sheared salmon sperm DNA competitor, 20 mM Tris-HCl pH 8.0, 150 mM NaCl, 5 mM MgCl2, 10 mM KCl, 10 ug/ml sheared salmon sperm DNA, 10% glycerol, 20 ul, room temperature 30 min, native 6% PAGE in 0.5x TBE, recombinant protein, residues 1-223, protein details: N-terminal His6 (pET-15b, NdeI/BamHI), probe letters rebuilt from the primers and the genome

AAAAGAGACATCATAACCTTTCAAAAATTTAAAAAATAATTTTAGTTTATACAATAACCAAACTTAAATAAAATATAAAAATAGAAATAAAGATAAATTTTTTGCACCGAAGGTGCAAAATTGTTAAGATTTTTTAGGGAAGCAGAAACGGTATCCTCTACGACGAACTGTTTCTATGGTAGATATATTTAATGGTTTATCCATTTTTTGACGAATTTGATTGATAGCTACTTCGATAACATTTGGAGTTACTAGCTCAGGTTCTTCCCAGATGGCATCTAAAAGTTGTTCTTTGGATACAATTTGATCCGAATGTCTTGCTAAGTGCGTTAAAACTTCAAAAGGTTTTCCTTTAAGTTCTATATCTTGACCTTTATAAGTAATTTTTTCCTCATCTGGATCAATAACTAAGTCTTCAATTTTAATAACATTGGTTCCGCCAAGTCTTAGTCTTGCTTCAATTCTTGCGAGTAGAATATCAAAA (double strand) [cosR internal region 484 bp]
binding result (10 uM rCosR): no binding

CGTGCATCCCAGTGTTCTATTTTTTTAGCACCTAAATCATGTAAAACAGCTCTAATAGGAGTGATTTCATCTGCACCAATAACCAAAACTGACATAAATTCTCCTTTGTGATTTTTAAAATATATTTTGATAATTATTATTATAATATAAAAAAACTAAATTTATTTTGAAATTTATTATCAATAAAATGCAATTATTCAGTTAATTTTAATTTTTAATAGATATAATTTACTAATTAATAAAATTTATTATTTAGGAGAAAACAATGAAAAAATTGACTAACGATTTTGGAAACATTATAGCTGATAACCAAAATTCATTAAGCGCAGGCGCAAAA (double strand) [katA promoter 337 bp]
binding result (10 uM rCosR, positive control): binds

TGGTATATTAGATTTCGAAAGAAGAAAAAAACAAAAAATTATTATCAAACTTAAAGCTAAAGCAAATGAATTTTTAAATTATGCAGAGGTAATTACCAAAATTAAAAAATGGTATAAAAAAGAAGAATTTTACACCCTTGAAGAGTCTTTAGACTTTGTAAGCTTAAATTTAAAAAAAGATTTTCCTAATTTAACCAATCTTAACATAAAAATTTTCAAACCCCATATAATAAAAAATGCTACAGTTGGGTTAAATTGAAAAAAAATATTAATTTTTTTTTAAAGATATCTAAACATTTACTTAAGCTATGATATAATTCTTTAAATTTTTCTTAATAAGGATAGAACAAATGAGAATTTTAGTTATAGAAG (double strand) [cosR promoter 374 bp]
binding result (1-10 uM rCosR titration): binds

No signal at the amounts used counts as a negative. Where a protein sequence is shown, tags need not be part of it.
